For some of these results: No signal at the amounts used counts as a negative. For some of these results: Construct, isoform or probe ends are uncertain for at least one entry. For some of these results: The comparison behind a weaker result is the experiment's own reference, which may not be listed here. For some of these results: At least one verdict rests on a figure or table, not on a statement of the authors.

Assay in all cases: EMSA
For orientation: A gel shift assay detects complexes by their altered migration in electrophoresis.

In data set [1] the test system is MBP-CsPHR1 (Camellia sinensis). Conditions: LightShift Chemiluminescent EMSA kit, 20 ul, 20 min at room temperature, 6% native polyacrylamide gel; salt and pH not given; recombinant protein; protein details: N-terminal MBP (pET-HMT); label: biotin.
The subject of data set [2] is MBP-CsPHR2 (Camellia sinensis). To be noted: LightShift Chemiluminescent EMSA kit, 20 ul, 20 min at room temperature, 6% native polyacrylamide gel, salt and pH not given, recombinant protein, protein details: N-terminal MBP (pET-HMT), label: biotin.
For data set [3], the target named is MBP (UniProt P0AEX9). Conditions: LightShift Chemiluminescent EMSA kit, 20 ul, 20 min at room temperature, 6% native polyacrylamide gel; salt and pH not given; protein translated in vitro; protein details: MBP; label: biotin.
[4] abbreviates: pCold-CsJAZ3 50-150 ng, dose-dependent reduction.

Regarding “CCGTTTATATTTTAGGACTCGTTAAGTAGAATATTCACGCAAAAAATAAGATTATC (double strand) [CsMYB5c probe (P1BS)]”, the binding result in data set [1] is “binds”; in data set [2], “binds”; in data set [2] (setting [4]), “binds more weakly”.
Regarding “TGGTTGTACTAGATTAGACATTGCATATGCAGTGGGAGTGGTTAGTAAAGTAATC (double strand) [CsANR1 probe (P1BS)]”, the binding result in data set [3] is “no binding”; in data set [1] it was “binds”; in data set [2], “binds”; in data set [2] (setting [4]), “binds more weakly”.

The record behind these values is publication PMC11331543.
